Sequences and labels used below:
T1: MX2-MUTT2A-TurboID (human) (UniProt P20592)
T1 sequence: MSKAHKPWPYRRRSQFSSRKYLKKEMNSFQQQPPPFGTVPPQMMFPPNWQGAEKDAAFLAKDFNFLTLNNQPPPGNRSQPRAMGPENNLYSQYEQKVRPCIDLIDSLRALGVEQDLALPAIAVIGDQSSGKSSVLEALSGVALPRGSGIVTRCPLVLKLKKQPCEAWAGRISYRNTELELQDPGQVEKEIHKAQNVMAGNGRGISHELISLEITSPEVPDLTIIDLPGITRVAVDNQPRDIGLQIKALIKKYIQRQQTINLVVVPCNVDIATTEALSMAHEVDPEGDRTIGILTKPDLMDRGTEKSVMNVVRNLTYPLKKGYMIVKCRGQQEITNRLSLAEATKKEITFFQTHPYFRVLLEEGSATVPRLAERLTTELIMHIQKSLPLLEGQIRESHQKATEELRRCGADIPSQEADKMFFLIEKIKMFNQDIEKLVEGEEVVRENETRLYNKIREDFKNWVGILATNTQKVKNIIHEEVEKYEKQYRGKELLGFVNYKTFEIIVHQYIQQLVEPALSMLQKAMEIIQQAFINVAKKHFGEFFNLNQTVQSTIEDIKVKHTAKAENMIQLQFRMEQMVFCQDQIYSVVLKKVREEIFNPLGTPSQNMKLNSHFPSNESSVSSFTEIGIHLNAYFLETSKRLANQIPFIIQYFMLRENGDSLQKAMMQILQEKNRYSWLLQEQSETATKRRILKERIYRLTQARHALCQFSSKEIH

B1: NUP133 (protein, UniProt Q8WUM0 1-1156)
chain: MFPAAPSPRTPGTGSRRGPLAGLGPGSTPRTASRKGLPLGSAVSSPVLFSPVGRRSSLSSRGTPTRMFPHHSITESVNYDVKTFGSSLPVKVMEALTLAEVDDQLTINIDEGGWACLVCKEKLIIWKIALSPITKLSVCKELQLPPSDFHWSADLVALSYSSPSGEAHSTQAVAVMVATREGSIRYWPSLAGEDTYTEAFVDSGGDKTYSFLTAVQGGSFILSSSGSQLIRLIPESSGKIHQHILPQGQGMLSGIGRKVSSLFGILSPSSDLTLSSVLWDRERSSFYSLTSSNISKWELDDSSEKHAYSWDINRALKENITDAIWGSESNYEAIKEGVNIRYLDLKQNCDGLVILAAAWHSADNPCLIYYSLITIEDNGCQMSDAVTVEVTQYNPPFQSEDLILCQLTVPNFSNQTAYLYNESAVYVCSTGTGKFSLPQEKIVFNAQGDSVLGAGACGGVPIIFSRNSGLVSITSRENVSILAEDLEGSLASSVAGPNSESMIFETTTKNETIAQEDKIKLLKAAFLQYCRKDLGHAQMVVDELFSSHSDLDSDSELDRAVTQISVDLMDDYPASDPRWAESVPEEAPGFSNTSLIILHQLEDKMKAHSFLMDFIHQVGLFGRLGSFPVRGTPMATRLLLCEHAEKLSAAIVLKNHHSRLSDLVNTAILIALNKREYEIPSNLTPADVFFREVSQVDTICECLLEHEEQVLRDAPMDSIEWAEVVINVNNILKDMLQAASHYRQNRNSLYRREESLEKEPEYVPWTATSGPGGIRTVIIRQHEIVLKVAYPQADSNLRNIVTEQLVALIDCFLDGYVSQLKSVDKSSNRERYDNLEMEYLQKRSDLLSPLLSLGQYLWAASLAEKYCDFDILVQMCEQTDNQSRLQRYMTQFADQNFSDFLFRWYLEKGKRGKLLSQPISQHGQLANFLQAHEHLSWLHEINSQELEKAHATLLGLANMETRYFAKKKTLLGLSKLAALASDFSEDMLQEKIEEMAEQERFLLHQETLPEQLLAEKQLNLSAMPVLTAPQLIGLYICEENRRANEYDFKKALDLLEYIDEEEDININDLKLEILCKALQRDNWSSSDGKDDPIEVSKDSIFVKILQKLLKDGIQLSEYLPEVKDLLQADQLGSLKSNPYFEFVLKANYEYYVQGQI
B2: TRIM56 (protein, UniProt Q9BRZ2 1-755)
chain: MVSHGSSPSLLEALSSDFLACKICLEQLRAPKTLPCLHTYCQDCLAQLADGGRVRCPECRETVPVPPEGVASFKTNFFVNGLLDLVKARACGDLRAGKPACALCPLVGGTSTGGPATARCLDCADDLCQACADGHRCTRQTHTHRVVDLVGYRAGWYDEEARERQAAQCPQHPGEALRFLCQPCSQLLCRECRLDPHLDHPCLPLAEAVRARRPGLEGLLAGVDNNLVELEAARRVEKEALARLREQAARVGTQVEEAAEGVLRALLAQKQEVLGQLRAHVEAAEEAARERLAELEGREQVARAAAAFARRVLSLGREAEILSLEGAIAQRLRQLQGCPWAPGPAPCLLPQLELHPGLLDKNCHLLRLSFEEQQPQKDGGKDGAGTQGGEESQSRREDEPKTERQGGVQPQAGDGAQTPKEEKAQTTREEGAQTLEEDRAQTPHEDGGPQPHRGGRPNKKKKFKGRLKSISREPSPALGPNLDGSGLLPRPIFYCSFPTRMPGDKRSPRITGLCPFGPREILVADEQNRALKRFSLNGDYKGTVPVPEGCSPCSVAALQSAVAFSASARLYLINPNGEVQWRRALSLSQASHAVAALPSGDRVAVSVAGHVEVYNMEGSLATRFIPGGKASRGLRALVFLTTSPQGHFVGSDWQQNSVVICDGLGQVVGEYKGPGLHGCQPGSVSVDKKGYIFLTLREVNKVVILDPKGSLLGDFLTAYHGLEKPRVTTMVDGRYLVVSLSNGTIHIFRVRSPDS
B3: NUP35 (endogenous) (protein, UniProt Q8NFH5 1-326)
chain: MAAFAVEPQGPALGSEPMMLGSPTSPKPGVNAQFLPGFLMGDLPAPVTPQPRSISGPSVGVMEMRSPLLAGGSPPQPVVPAHKDKSGAPPVRSIYDDISSPGLGSTPLTSRRQPNISVMQSPLVGVTSTPGTGQSMFSPASIGQPRKTTLSPAQLDPFYTQGDSLTSEDHLDDSWVTVFGFPQASASYILLQFAQYGNILKHVMSNTGNWMHIRYQSKLQARKALSKDGRIFGESIMIGVKPCIDKSVMESSDRCALSSPSLAFTPPIKTLGTPTQPGSTPRISTMRPLATAYKASTSDYQVISDRQTPKKDESLVSKAMEYMFGW
B4: NUP85 (protein, UniProt Q9BW27 1-656)
chain: MEELDGEPTVTLIPGVNSKKNQMYFDWGPGEMLVCETSFNKKEKSEMVPSCPFIYIIRKDVDVYSQILRKLFNESHGIFLGLQRIDEELTGKSRKSQLVRVSKNYRSVIRACMEEMHQVAIAAKDPANGRQFSSQVSILSAMELIWNLCEILFIEVAPAGPLLLHLLDWVRLHVCEVDSLSADVLGSENPSKHDSFWNLVTILVLQGRLDEARQMLSKEADASPASAGICRIMGDLMRTMPILSPGNTQTLTELELKWQHWHEECERYLQDSTFATSPHLESLLKIMLGDEAALLEQKELLSNWYHFLVTRLLYSNPTVKPIDLHYYAQSSLDLFLGGESSPEPLDNILLAAFEFDIHQVIKECSIALSNWWFVAHLTDLLDHCKLLQSHNLYFGSNMREFLLLEYASGLFAHPSLWQLGVDYFDYCPELGRVSLELHIERIPLNTEQKALKVLRICEQRQMTEQVRSICKILAMKAVRNNRLGSALSWSIRAKDAAFATLVSDRFLRDYCERGCFSDLDLIDNLGPAMMLSDRLTFLGKYREFHRMYGEKRFADAASLLLSLMTSRIAPRSFWMTLLTDALPLLEQKQVIFSAEQTYELMRCLEDLTSRRPVHGESDTEQLQDDDIETTKVEMLRLSLARNLARAIIREGSLEGS
B5: nuclear transport receptor transportin-2 (TNPO2) (protein, UniProt O14787 1-897)
chain: MDWQPDEQGLQQVLQLLKDSQSPNTATQRIVQDKLKQLNQFPDFNNYLIFVLTRLKSEDEPTRSLSGLILKNNVKAHYQSFPPPVADFIKQECLNNIGDASSLIRATIGILITTIASKGELQMWPELLPQLCNLLNSEDYNTCEGAFGALQKICEDSSELLDSDALNRPLNIMIPKFLQFFKHCSPKIRSHAIACVNQFIMDRAQALMDNIDTFIEHLFALAVDDDPEVRKNVCRALVMLLEVRIDRLIPHMHSIIQYMLQRTQDHDENVALEACEFWLTLAEQPICKEVLASHLVQLIPILVNGMKYSEIDIILLKGDVEEDEAVPDSEQDIKPRFHKSRTVTLPHEAERPDGSEDAEDDDDDDALSDWNLRKCSAAALDVLANVFREELLPHLLPLLKGLLFHPEWVVKESGILVLGAIAEGCMQGMVPYLPELIPHLIQCLSDKKALVRSIACWTLSRYAHWVVSQPPDMHLKPLMTELLKRILDGNKRVQEAACSAFATLEEEACTELVPYLSYILDTLVFAFGKYQHKNLLILYDAIGTLADSVGHHLNQPEYIQKLMPPLIQKWNELKDEDKDLFPLLECLSSVATALQSGFLPYCEPVYQRCVTLVQKTLAQAMMYTQHPEQYEAPDKDFMIVALDLLSGLAEGLGGHVEQLVARSNIMTLLFQCMQDSMPEVRQSSFALLGDLTKACFIHVKPCIAEFMPILGTNLNPEFISVCNNATWAIGEICMQMGAEMQPYVQMVLNNLVEIINRPNTPKTLLENTGRLTSPSAIPAITIGRLGYVCPQEVAPMLQQFIRPWCTSLRNIRDNEEKDSAFRGICMMIGVNPGGVVQDFIFFCDAVASWVSPKDDLRDMFYKILHGFKDQVGEDNWQQFSEQFPPLLKERLAAFYGV
B6: NUP54 (protein, UniProt Q7Z3B4 1-507)
chain: MAFNFGAPSGTSGTAAATAAPAGGFGGFGTTSTTAGSAFSFSAPTNTGTTGLFGGTQNKGFGFGTGFGTTTGTSTGLGTGLGTGLGFGGFNTQQQQQTTLGGLFSQPTQAPTQSNQLINTASALSAPTLLGDERDAILAKWNQLQAFWGTGKGYFNNNIPPVEFTQENPFCRFKAVGYSCMPSNKDEDGLVVLVFNKKETEIRSQQQQLVESLHKVLGGNQTLTVNVEGTKTLPDDQTEVVIYVVERSPNGTSRRVPATTLYAHFEQANIKTQLQQLGVTLSMTRTELSPAQIKQLLQNPPAGVDPIIWEQAKVDNPDSEKLIPVPMVGFKELLRRLKVQDQMTKQHQTRLDIISEDISELQKNQTTSVAKIAQYKRKLMDLSHRTLQVLIKQEIQRKSGYAIQADEEQLRVQLDTIQGELNAPTQFKGRLNELMSQIRMQNHFGAVRSEERYYIDADLLREIKQHLKQQQEGLSHLISIIKDDLEDIKLVEHGLNETIHIRGGVFS

These are yes or no findings as the source states them, for the method shown. In cells and extracts the contact can be indirect. A yes stands for co-enrichment or nearness to the bait. Other partners may have been found.

The target in this assay is T1, MX2-MUTT2A-TurboID (human). Briefly: proximity labelling.
For B1, the binding result was “binds”.

Consider B2, for which the binding entry is reported as “binds”. For the molecule B3, the binding entry was “binds”.

Take B4: the binding entry is given as “binds”. Take B5: the binding result is listed as “binds”. As for B6, the binding result was “binds”.

The values are drawn from article doi:10.1101/2023.06.22.545931.
